The exact form of at least one protein or probe is not confirmed. For some assays here: At least one result comes from cells or an extract, where the contact may be indirect. For some assays here: A negative result means that nothing was seen under these conditions.
Experiments:
[1] = target: TRF1 (HeLa TRF, native) (Homo sapiens) (UniProt P54274); experiment: EMSA; settings: activity followed during purification; highly purified protein needs beta-casein added back; purified native protein; label: radiolabelled
[2] = target: mTRF2 deltaN-49 (Mus musculus) (UniProt O35144); experiment: EMSA; settings: supershifted by anti-FLAG; protein in a lysate after overexpression; protein details: FLAG; label: radiolabelled
[3] = target: mTRF2 full length (Mus musculus) (UniProt O35144); experiment: EMSA; settings: two complexes detected only in presence of anti-FLAG M2 antibody; no discrete complex without it; protein in a lysate after overexpression; protein details: N-terminal FLAG; label: radiolabelled
[4] = target: hTRF1 HTRF4.1 (XhoI site to stop) (Homo sapiens) (UniProt P54274); experiment: EMSA; settings: reticulocyte lysate; protein translated in vitro; label: radiolabelled
[5] = target: hTRF1 endogenous (HeLa whole cell extract) (Homo sapiens) (UniProt P54274); experiment: EMSA; settings: complex supershifted by TRF1 antibody 5; protein in an extract; label: radiolabelled
[6] = target: mTRF1 MTRF12 (Mus musculus) (UniProt P70371); experiment: EMSA; settings: reticulocyte lysate; protein translated in vitro; label: radiolabelled
[7] = target: mTRF2 deltaN-49 (Mus musculus) (UniProt O35144); experiment: competition with a labelled probe; settings: single-stranded oligonucleotide; protein in a lysate after overexpression; protein details: FLAG; single-stranded DNA

By UniProt entry, the sequences of proteins in these tests, tags left out. Chains listed by the source or under a name are the forms on record and can include a tag or linker.
UniProt P54274, other isoform, or with tags, fused parts or gaps: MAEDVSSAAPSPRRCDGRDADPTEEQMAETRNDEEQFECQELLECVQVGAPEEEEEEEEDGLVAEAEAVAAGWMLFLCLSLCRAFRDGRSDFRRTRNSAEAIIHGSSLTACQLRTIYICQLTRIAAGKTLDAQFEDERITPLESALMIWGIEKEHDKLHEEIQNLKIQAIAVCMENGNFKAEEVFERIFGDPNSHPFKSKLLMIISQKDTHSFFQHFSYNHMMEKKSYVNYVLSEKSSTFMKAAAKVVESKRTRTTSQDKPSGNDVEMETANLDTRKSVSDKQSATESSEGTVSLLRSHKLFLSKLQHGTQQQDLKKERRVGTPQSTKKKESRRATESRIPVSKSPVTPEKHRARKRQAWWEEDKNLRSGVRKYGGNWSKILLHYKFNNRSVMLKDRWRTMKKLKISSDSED
UniProt O35144, other isoform, or with tags, fused parts or gaps: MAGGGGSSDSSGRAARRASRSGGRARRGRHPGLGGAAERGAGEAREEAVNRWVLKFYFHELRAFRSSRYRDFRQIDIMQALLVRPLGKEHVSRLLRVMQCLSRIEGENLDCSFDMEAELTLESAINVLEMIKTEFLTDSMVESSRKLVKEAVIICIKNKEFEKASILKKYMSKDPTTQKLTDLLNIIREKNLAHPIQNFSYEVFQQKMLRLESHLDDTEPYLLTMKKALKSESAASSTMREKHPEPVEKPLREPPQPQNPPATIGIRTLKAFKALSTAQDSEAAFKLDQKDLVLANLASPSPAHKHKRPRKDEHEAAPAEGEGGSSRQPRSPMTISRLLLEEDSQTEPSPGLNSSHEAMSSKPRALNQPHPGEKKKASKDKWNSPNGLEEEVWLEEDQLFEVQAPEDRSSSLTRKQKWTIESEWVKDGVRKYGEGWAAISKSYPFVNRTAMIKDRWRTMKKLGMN
UniProt P70371, other isoform, or with tags, fused parts or gaps: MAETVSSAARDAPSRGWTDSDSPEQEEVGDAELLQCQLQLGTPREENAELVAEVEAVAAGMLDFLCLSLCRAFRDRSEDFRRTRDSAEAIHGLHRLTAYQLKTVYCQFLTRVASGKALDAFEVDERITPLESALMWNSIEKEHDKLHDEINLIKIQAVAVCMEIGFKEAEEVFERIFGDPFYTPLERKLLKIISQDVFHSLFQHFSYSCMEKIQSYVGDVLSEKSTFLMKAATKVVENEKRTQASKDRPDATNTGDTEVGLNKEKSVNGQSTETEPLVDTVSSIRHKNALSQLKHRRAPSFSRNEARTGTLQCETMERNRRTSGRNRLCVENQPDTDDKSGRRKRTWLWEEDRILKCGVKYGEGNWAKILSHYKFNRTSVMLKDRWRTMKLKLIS

GTACCCGGGGATCGTGACTCTAGAGGGGCCCTAACCCTAACCCTAACCCTAACCCTAACCCTAACCCTAACCCTAACCCTAACCCTAACCCTAACCCTAACCCTAACCCGGGTCGAATTCGATCTCTAGAGTCGACCTGCAGGCATGC (double strand) [[TTAGGG]12 restriction fragment probe]
binding result [1]: binds
binding result [2]: binds
binding result [3]: binds
binding result [4]: binds
binding result [5]: binds
binding result [6]: binds

CCCTAACCCTAACCCTAACCCTAACCCTAACCCTAA [single-stranded [CCCTAA]6]
binding result [7]: no binding

TTAGGGTTAGGGTTAGGGTTAGGGTTAGGGTTAGGG [single-stranded [TTAGGG]6]
binding result [7]: no binding

Source: patent US20020076719A1 (ROCKEFELLER UNIVERSITY, published 2002)
